What all share (type): functional
The subject of test [1] is Escherichia coli. Briefly: Antimicrobial activity against Escherichia coli R477-100 by double-microdilution method. (In general: In broth dilution the organism is exposed to a series of concentrations in liquid medium.)
Test [2] deals with Pseudomonas aeruginosa. Briefly: Antimicrobial activity against Pseudomonas aeruginosa 584/5 isolate by double-microdilution method. Summed up: (§1)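 Double-microdilution method following NCCLS, starting at 384 µg/mL of compound with doubling dilutions. Run in triplicate (a table footnote says duplicates), with analogous results in three separate experiments.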
Test [3] deals with Escherichia coli. Briefly: Antimicrobial activity against Escherichia coli XL1 expressing APH(3')-1a by double-microdilution method. Summed up: as §1
Test [4] concerns Escherichia coli. Nature of the test: Inhibition of translation in Escherichia coli S30 extract by coupled transcription/translation assay. Summed up: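 E. coli S30 extract for circular DNA with pBES-Tluc plasmid, coupled transcription/translation. 25 µL reactions with varied aminoglycoside concentrations, 60 min at 37 °C, then 5 min on ice. Diluted into Tris-phosphate 25 mM pH 7.8 buffer with DTT, CDTA, glycerol, Triton X-100 and BSA. Luciferase luminescence read at once; IC50 fitted from concentration-response curves of at least two independent experiments.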

Test [5] concerns Pseudomonas aeruginosa. Nature of the test: Antimicrobial activity against Pseudomonas aeruginosa ATCC 27853 by double-microdilution method. The method, boiled down: as §1
For test [6], the system named is Escherichia coli. Briefly: Antimicrobial activity against Escherichia coli ATCC 25922 by double-microdilution method. Summed up:
as §1

pIC50: −log10 of the molar value. ≈ marks a conversion by molar mass, not a printed value.

For the compound `CNC1C(O)C(OC2C(N)CC(N)C(OC3OC(CN)CCC3N)C2O)OCC1(C)O` (stereo unspecified) [GENTAMICIN C1A], the MIC (commonly the smallest concentration in the dilution series that meets the test's criterion for growth inhibition) worked out at 48 µg/mL (≈ 107 µM) in the test with Escherichia coli [1]; 48 µg/mL (≈ 107 µM) against Pseudomonas aeruginosa [2]; 12 µg/mL (≈ 26.7 µM) with Escherichia coli [3]; 12 µg/mL (≈ 26.7 µM) in the test on Pseudomonas aeruginosa [5]; 96 µg/mL (≈ 214 µM) in the test on Escherichia coli [6]. In addition, the pIC50 (as a rule, the IC50 on a negative log10 scale, so that one unit is a factor of ten) with Escherichia coli [4] is 7.23.

For the origin of these results see ChEMBL document CHEMBL1141721, “Structure-toxicity relationship of aminoglycosides: correlation of 2'-amine basicity with acute toxicity in pseudo-disaccharide scaffolds” (Bioorg Med Chem, 2008).
